Consider 113 substances from the supplement of paper PMC5949888.

Most values lie at the floor of the assay. Slopes are relative: functional sequences can read slightly below zero.

For this series, the system named is Saccharomyces cerevisiae PS128 hsf1 delta, HSF1(1-493) fusion. The series can be described thus: growth estimate (transactivation domain function in HSF1 fusion, heat-shock survival) (a.u. (slope of normalised read count over time)); higher = stronger growth at 37°C, i.e. more transactivation activity. Particulars: library: random library. The method, then:
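Random 60-nt DNA library encoding peptides of up to 20 aa, fused to the C-terminus of yeast HSF1 residues 1-493 (C-terminal TAD deleted) and expressed from the native HSF1 promoter on a CEN plasmid in hsf1-deleted S. cerevisiae PS128. Cells were selected at 37°C on -trp 5-FOA plates for 0, 2, 4, 6 and 8 days and amplicons were sequenced. Growth estimate is the slope of a robust linear fit of total-sum-normalised read counts (normalised to the first time point) over time, using at least 2 replicates. Sequences are classed functional (TAD activity) above a threshold of -0.13, set from stop-codon control sequences.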
Regarding CRINSSRSWTGLSRLPMSPL, the growth estimate was less than -0.25. For SKQ, the growth estimate was less than -0.25.

In the case of LTTLRTGTKG, the growth estimate was less than -0.25.

For the substance EIITQVSRRLWTWSYNV, the growth estimate is less than -0.25. On to NRGNATCKRSAPLPESGYLR, for which the growth estimate is less than -0.25. As to SEHE, the growth estimate was less than -0.25. Regarding VGTRKLPDVSSSIID, the growth estimate is less than -0.25. For TIN, the growth estimate was less than -0.25.

CPVL: the growth estimate was less than -0.25. Regarding SAGLILEVRAQPSLSNKSLR, the growth estimate is less than -0.25. Regarding ACPGTLAVPQPGFKG, the growth estimate was less than -0.25. Consider TREPR, for which the growth estimate was less than -0.25. Regarding LVRFTMAGRFSLGHHH, the growth estimate was -0.243. Take RIHAWANAPHRAGFTFESCP: the growth estimate was less than -0.25.

As to GLGVVFEIHNVRKLSTGPVL, the growth estimate was less than -0.25. RDLCMFRRQVDLVGALILSA: the growth estimate was less than -0.25. Take EPSPVRAICFWYGPLELGHL: the growth estimate was less than -0.25. Take AEGWTIAL: the growth estimate was less than -0.25. The same measure for EMGEPRLSVNRMSL: less than -0.25; for RTRD: less than -0.25.

Regarding GVDGAVESNAWCLHLGFWRE, the growth estimate was less than -0.25. On to LDWNAPTTAWTDGVSVRERG, for which the growth estimate is less than -0.25. As for ILMWYPRYASVFHRVLSDWG, the growth estimate is less than -0.25. Consider SLLEV, for which the growth estimate is less than -0.25.

SSGLLTPEVSPNRIYDVLA: the growth estimate was less than -0.25.

Regarding VRSSHWPISTLDRALNPCMV, the growth estimate was less than -0.25. As for HAAGPGGKTAAGLLLHSVNY, the growth estimate is less than -0.25. Take DRFP: the growth estimate was less than -0.25.

With LVNGRNKNVSRPWR, the growth estimate was -0.231. On to RWSYMVIMYWCS, for which the growth estimate is less than -0.25.

Turning to DIPNDGWVINVHASWYMGVA, the growth estimate is less than -0.25. For TSSPKDIGYRHGPHAFCRSC the value was less than -0.25; for KYIIMSQLAKYEK, less than -0.25. For LTQDMLRGFFRGPVVQRTEF, the growth estimate was less than -0.25. Regarding GPRGVSVYWNVMVANVRRAG, the growth estimate was less than -0.25. With SFSKRSTSVVIHAAGPCLMT, the growth estimate is less than -0.25. Regarding PLLIVS, the growth estimate is less than -0.25.

On to LICSLTLISEG, for which the growth estimate is less than -0.25.

In the case of AVGLWRPESS, the growth estimate was less than -0.25.

For PWILKSVQCVYREK, the growth estimate is less than -0.25.

With VGLPSHRIAMHECIDRQAGT, the growth estimate is less than -0.25. As for VEPGDVGRRVTSVLSIEITY, the growth estimate is less than -0.25.

For SVFIRL, the growth estimate is less than -0.25. Regarding APVGYW, the growth estimate was less than -0.25. On to IFAGRSPVR, for which the growth estimate is less than -0.25. Take RDGFFVHHLT: the growth estimate was less than -0.25.

In the case of LSHLRGVR, the growth estimate is less than -0.25. For the substance ARSLGSP, the growth estimate was less than -0.25. For QVKVFDAAIHLTDRQTDGTK the value was less than -0.25. The same measure for AEVQRPTCGPRRHNERWCCA: less than -0.25.

LKKQAVGASLRNG: the growth estimate was less than -0.25. With WIINNIKTAPRRAGGHFLRH, the growth estimate is less than -0.25. On to WPKLCGRTG, for which the growth estimate was less than -0.25.

Regarding QWPVDIPHLWLSHPDARSAG, the growth estimate was less than -0.25. On to TRNLGRSTQWIVEAGNLVA, for which the growth estimate is less than -0.25.

As for NYFLAMTNRICQ, the growth estimate is less than -0.25.

In the case of NKSLVETQRGTHVPCSSGKY, the growth estimate is -0.246. Take GETISAGVACAQMYCYPRGP: the growth estimate is less than -0.25. On to FMCLESVLAKPKSVSPPPDH, for which the growth estimate was -0.107.

With PVERRWIRW, the growth estimate was less than -0.25. With LCRQHLELDCPALSLGSVRS, the growth estimate is less than -0.25. Take IERRKRLVRSAGRLRIVIWL: the growth estimate is less than -0.25. The same measure for GFPLRVERRLSELARSSHHR: less than -0.25. Turning to GQYTTSARNEHA, the growth estimate was less than -0.25.

For the substance GSGRVARNNKDSDTRALVAS, the growth estimate is less than -0.25. For the substance VRIGKDMAHDDSGRTVLSFL, the growth estimate was less than -0.25. With HRNAIVRDEVRCP, the growth estimate is less than -0.25. Take TFSEDCKSRCIIGAMKNRGG: the growth estimate was -0.228. As to PVHRYLDKGTSRDRLGLTRS, the growth estimate was less than -0.25.

As to DRLFRDAYQG, the growth estimate is less than -0.25. VMVAVNPRGTQLHIVDGRHW: the growth estimate was -0.246.

Take SETHLLHRDSSLGRVSSIRV: the growth estimate was less than -0.25. For SPASIGTLNYPVNYMVQRGM the value was less than -0.25; for SRLRRKAGVAVILTKPSLHA, less than -0.25. With ADCAWAYGKNFNVSPKVLTG, the growth estimate was less than -0.25. For the substance VYIPLTPYITEPLRRKSITA, the growth estimate was less than -0.25. For QIAGLTAW, the growth estimate was less than -0.25. Consider GLFTGRDGGTNREVHIGRCD, for which the growth estimate is less than -0.25. Turning to RVAEDAVKLQSIQRFTSIGT, the growth estimate is less than -0.25. On to YWVVASDGATTGVGVSYIRG, for which the growth estimate is less than -0.25.

As to VHEPYEEK, the growth estimate was less than -0.25. For LAD the value was less than -0.25. As for KDGVSVRGDSIVLVEMQ, the growth estimate was -0.246.

With SRSLIGGSRHEGALSIRLKG, the growth estimate was less than -0.25.

As for GLFVPTGADTFTLSRTGPTI, the growth estimate was less than -0.25. As to KVYMVAARVRARR, the growth estimate was less than -0.25.

With VTAEQTRARYGSVRVGTKGH, the growth estimate is less than -0.25.

Regarding TLGRASVLMCWRCAIGLTEP, the growth estimate was less than -0.25. In the case of RCKV, the growth estimate is less than -0.25.

Turning to GLYRSKRGIMHRLDEPPSRR, the growth estimate is less than -0.25.

Regarding KDCTKDLGGTRDFCKEASVF, the growth estimate is less than -0.25. Consider IGDSQLGYGHISSVMERSL, for which the growth estimate was -0.199.

For FVSFSERAP, the growth estimate was less than -0.25. Regarding ITGQRSLSFRDGNIVLLGPY, the growth estimate is less than -0.25. In the case of IGKTRV, the growth estimate is less than -0.25. In the case of RTQVVSVKWQRGTREVPVVR, the growth estimate was less than -0.25.

For SFDRRGVTCKCGS, the growth estimate was less than -0.25. With RGWYKS, the growth estimate is less than -0.25. For RTRLSSLLDPGLIKCPIRQR the value was less than -0.25. In the case of AKKGPDSFSGWDTDFKYCRC, the growth estimate is less than -0.25. In the case of ATGARNADGLQRGITDRSVV, the growth estimate was less than -0.25. GFKGWRTYAHFTAECLKDRG: the growth estimate was less than -0.25. As for RDAFAKHRC, the growth estimate was -0.243. On to ERS, for which the growth estimate was less than -0.25. The same measure for VIEWSLTGVRRGCWNC: less than -0.25. With RPDCVGPTCTASGLKQP, the growth estimate is less than -0.25.

Consider GLILGESIKPIPVCDSSLFY, for which the growth estimate is less than -0.25.

In the case of VRNVIDADKIFFSLFE, the growth estimate was -0.245. The same measure for ANNLVKVRSQYPLNRALFGG: less than -0.25. In the case of RHPERSKLNFGVNEPRGPTF, the growth estimate was less than -0.25. For the substance LLFYIRRRRWLAKRRE, the growth estimate is less than -0.25. Consider HCSALQTHYYACVKMTVRLR, for which the growth estimate is less than -0.25.

Regarding PTHGTLKMFAGGFALRSTM, the growth estimate is less than -0.25.
